Results as given in publication PMC10506458.
These are yes or no findings as the source states them, for the method shown. In cells and extracts the contact can be indirect. Some results given as binding are weak or reduced against the parent protein; the word gives no strength. Tags and fused reporters may be left off the sequences shown.

The chains behind the UniProt entries cited, without tags or fusion partners. Where a name states a change or a piece, a line headed by the entry shows the natural chain unless it says otherwise.
UniProt P62258: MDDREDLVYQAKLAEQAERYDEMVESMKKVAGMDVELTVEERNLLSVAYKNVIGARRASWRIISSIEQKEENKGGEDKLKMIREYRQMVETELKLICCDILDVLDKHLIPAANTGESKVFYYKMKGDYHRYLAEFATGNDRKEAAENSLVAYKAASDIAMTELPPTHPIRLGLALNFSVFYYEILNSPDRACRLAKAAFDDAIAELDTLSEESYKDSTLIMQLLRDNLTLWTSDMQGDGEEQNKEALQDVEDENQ

T1: FLAG-RIG-I (UniProt O95786)
T1 sequence: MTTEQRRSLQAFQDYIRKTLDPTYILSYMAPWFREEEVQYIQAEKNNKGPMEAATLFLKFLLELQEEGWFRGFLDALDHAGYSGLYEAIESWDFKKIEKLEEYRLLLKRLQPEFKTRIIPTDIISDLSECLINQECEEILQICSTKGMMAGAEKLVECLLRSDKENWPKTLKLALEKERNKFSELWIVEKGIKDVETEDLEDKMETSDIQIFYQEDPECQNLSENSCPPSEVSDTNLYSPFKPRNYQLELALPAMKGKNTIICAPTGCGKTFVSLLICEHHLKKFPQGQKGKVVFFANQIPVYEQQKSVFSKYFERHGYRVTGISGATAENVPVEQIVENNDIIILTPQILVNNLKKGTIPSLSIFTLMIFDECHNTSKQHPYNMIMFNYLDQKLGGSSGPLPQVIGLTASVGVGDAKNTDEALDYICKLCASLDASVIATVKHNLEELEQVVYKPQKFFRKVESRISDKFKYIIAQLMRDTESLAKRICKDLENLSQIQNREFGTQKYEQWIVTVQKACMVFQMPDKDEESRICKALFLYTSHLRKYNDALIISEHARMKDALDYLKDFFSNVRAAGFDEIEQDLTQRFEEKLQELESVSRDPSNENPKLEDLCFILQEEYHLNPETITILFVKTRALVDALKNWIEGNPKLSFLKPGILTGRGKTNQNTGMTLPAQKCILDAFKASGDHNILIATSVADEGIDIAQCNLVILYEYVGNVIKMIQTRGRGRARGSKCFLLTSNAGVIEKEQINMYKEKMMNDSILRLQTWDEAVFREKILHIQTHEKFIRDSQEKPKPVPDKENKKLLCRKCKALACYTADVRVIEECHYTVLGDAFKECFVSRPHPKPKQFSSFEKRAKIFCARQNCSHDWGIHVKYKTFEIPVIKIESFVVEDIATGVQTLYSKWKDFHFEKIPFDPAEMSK

B1: FLAG-RIG-I (protein, UniProt O95786 1-925)
chain: T1 sequence

Assays:
[1] = target: T1, FLAG-RIG-I; experiment: co-IP; anti-FLAG M2 magnetic beads (FLAG-RIG-I as bait), myc-14-3-3ε detected by blot; lysate of cells co-transfected for 24 hours and transfected with poly(I:C) for 6 hours; lysis 1% Triton-X, 150 mM NaCl; washes with 300 mM NaCl
[2] = target: myc-3CN 14-3-3ε (human) (UniProt P62258); experiment: co-IP; anti-c-Myc magnetic beads (myc-14-3-3ε as bait), FLAG-RIG-I detected by blot; lysate of cells co-transfected for 24 hours and transfected with poly(I:C) for 6 hours; lysis 1% Triton-X, 150 mM NaCl; washes with 300 mM NaCl
[3] = target: myc-tagged wild type 14-3-3ε (human) (UniProt P62258); experiment: as above

Row | Molecule | binding [1] | binding [2] | binding [3]
1 | myc-3CN 14-3-3ε (from UniProt P62258 1-236) (domain or fragment) | no binding |  | 
2 | myc-tagged wild type 14-3-3ε (from UniProt P62258 1-255) | binds |  | 
3 | B1 |  | no binding | binds
